From patent US10829516B2 (London Health Sciences Centre Research Inc., priority 2015, dated 2020)
Non-standard residues stand in square brackets, D forms with d. d2Nal = N[C@H](Cc1ccc2ccccc2c1)C(=O)O; Aib = CC(C)(N)C(=O)O

Assay: general procedure: Fmoc solid-phase peptide synthesis; Rink amide MBHA resin (0.52 mmol g-1 loading); HCTU/DIPEA
Details: whole synthesis; for isolated yield: scale of the general procedure 0.1 mmol

| Substance | isolated mass | isolated yield |
| --- | --- | --- |
| H-AH[d2Nal]AW[dF]K-NH2 | 26.4 mg | 19% |
| H-Aib-His-D-2-Nal-D-2-Thi-Lys(4-FB)-NH2 | 4.20 mg | 4% |
| H-Aib-His-D-2-Nal-D-Phe-Lys(4-FB)-NH2 | 15.4 mg | 15% |
| H-Aib-His-D-2-Nal-D-Phe-Lys(4-FB-AEEA)-NH2 | 9.2 mg | 8% |
| H-H[dW]AW[dF]K-NH2 | 19.7 mg | 14% |
| H-His-D-Trp-Ala-Trp-D-Phe-Dpr(4-FB)-NH2 | 19.8 mg | 14% |
| H-His-D-Trp-Ala-Trp-D-Phe-Lys(4-FB)-NH2 | 9.60 mg | 7% |
| H-Inp-D-2-Nal-D-2-Nal-1-Nal-Lys(4-FB)-NH2 | 9.80 mg | 9% |
| H-Inp-D-2-Nal-D-2-Nal-1-Nal-Lys-NH2 | 24.9 mg | 23% |
| H-Inp-D-2-Nal-D-2-Nal-Phe-Lys(4-FB)-NH2 | 5.90 mg | 6% |
| H-Inp-D-2-Nal-D-2-Nal-Phe-Lys-NH2 | 6.70 mg | 7% |
| H-Inp-His-D-2-Nal-D-2-Nal-Lys(4-FB)-NH2 | 11.3 mg | 10% |
| H-Inp-His-D-2-Nal-D-2-Thi-Lys(4-FB)-NH2 | 14.0 mg | 13% |
| H-Inp-His-D-2-Nal-D-Phe-Lys(4-FB)-NH2 | 6.30 mg | 6% |
| H-[Aib]H[d2Nal][dF]K-NH2 | 20.5 mg | 19% |
| H-[dA][d2Nal]AW[dF]K-NH2 | 19.7 mg | 17% |
